These results are taken from paper PMC10163288.

This is one part of the list.

B1: il2ra_site1_2b5i_sap_8_mot_HHH_b1_01346_af2_000000027_0001_1_20_H_._39b139147af3ad00170bddbd6f59d520_0001_af2_0001_0000100002_0000001_1_0001 (protein)
chain: SSSSDEAVQRVTELFSEASRLWLKGNPEEARRLIEEAAELAKENNDERAQEDLERMLELLSSSSS
B2: il2ra_site1_1z92_normal_mot_HHH_b2_01478_000000292_0001_19_36_H_._36bcdb301988f4a659962e34de24edd2_0001_1_0001_0000100010_0000001_0_af2pred_0001_af2pred (protein)
chain: NVKEFLAEQLRRKPPEAVRKLLERLKEALKRSGTPPEEIREFLQELAELAGDPEVEKIVEELIKP
B3: il2ra_site2_3nfp_normal_mot_HHH_b1_01086_000000225_0001_20_36_H_._HHH_b2_06691_0001_0000400085_0000001_0_af2pred_0001_1_af2pred_swapped (protein)
chain: SSSSSDEELEEEIEELLEQAKHIEDPHERFAVLADAATLAIQNNDPEAERLVKEVARRLGSSSSS
B4: il2ra_site2_2erj_sap_27_mot_HHH_b1_06697_000000025_0001_41_54_H_._HHH_b2_06097_0001_0000200013_0000001_0_0001 (protein)
chain: SSSSDKLRELYKLAVELMRLVAEGDEERFEEVAEEVRKLVEELDSRTAREILEALERKIKSSSSS
B5: il2ra_site2_2erj_normal_mot_HHH_b1_02757_000000121_0001_41_57_H_._HHH_b2_06774_0001_0000100003_0000001_0_af2pred_0001_1_af2pred_swapped (protein)
chain: SSSSSDEEEVRERVEELLEEAKKIPDPREALKVLQEASELASEANDEELLELIRKVLRESSSSSS
B6: il2ra_site2_3nfp_normal_mot_HHH_b1_05547_af2_000000149_0001_21_38_H_._HHH_b1_04376_0001_0000200015_0000001_0 (protein)
chain: SSSSSDEEELERRIELLEQAAEARGDPEVLRKIEELLEEFRKEGDPRYTLKAYELLRRAYSSSSS
B7: il2ra_site1_1z92_normal_mot_HHH_b1_05973_af2_000000047_0001_39_50_H_._ems_3hM_2546_0001_0000100002_0000001_0_af2pred_0001_af2pred (protein)
chain: SSPEEARKLIEIIKKIAEERNSKSAKRFVEVAEEELKLAEEENDEEAIKLIAELLEQFLKFLNRS
B8: il2ra_site2_2erj_sap_14_mot_HHH_b2_05233_af2_000000237_0001_1_18_H_._04c2be03c051e241883c256f53f321d2_0001_0001_0000600029_0000001_0_0001 (protein)
chain: SSSSWQELYELARRIDRLLAEGDLEEAEKLIEELKELAEELNSETAKSAVKILEQSLRLERSSSS
B9: il2ra_site2_3nfp_sap_11_mot_HHH_b1_00660_af2_000000090_0001_40_57_H_._HHH_b2_05351_0001_0000600029_0000001_0_0001 (protein)
chain: SSSSSRSEEYLKAALELLELAVEEGDEEAVEKHTELVRLAAEDAGNPEVEERAEELKRELSSSSS
B10: il2ra_site2_2erj_normal_mot_8a316d4779eb53efc793250774d75e68_0001_af2_000000043_0001_18_32_H_._HHH_b1_06960_af2_0001_0000800004_0000001_0 (protein)
chain: SSSSSDVEEELKELIEEAEELKKENPEEAISVLIEAAELALQNNDEEIFKRVSELFEELFSSSSS

The test concerns the target il2ra, P01589. Nature of the test: yeast display titration.
Take B1: the “apparent Kd” value is “inactive: no binding seen”.
B2: the “apparent Kd” value is “inactive: no binding seen”.
Then B3, with “inactive: no binding seen”; and B4, with “inactive: no binding seen”.
Then B5, with “inactive: no binding seen”; and B6, with “inactive: no binding seen”.
B7: the “apparent Kd” value is “inactive: no binding seen”.
With B8 the entry was “inactive: no binding seen”.
Then B9, with “inactive: no binding seen”.
With B10 the entry was “inactive: no binding seen”.
